Experimental data reported in PubChem BioAssay AID2417 (National Center for Advancing Translational Sciences (NCATS), 2010).
Screen size: about 140,000 compounds; about 4,300 (3.1%) were called active. This list was built around the results that the source calls inconclusive (neither active nor inactive); the mix of calls is not that of the screen.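 The calls were made as follows: active = readout at or below -70, meaning at least 70% loss of cells showing the perinucleolar compartment, a nuclear body marking cancer cells; inconclusive = readout between -30 and a set limit; inactive = the rest.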

assay: High Content Assay for Compounds that inhibit the Assembly of the Perinucleolar Compartment; conditions: PC3M PTB-GFP, PNC prevalence imaging, 16 h; at 10 µM; hits give low values;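 also: plate controls were DMSO wells for no effect and camptothecin positive control wells for full effect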
Outline: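 Compounds are pinned in duplicate onto adhered PC3M cells stably expressing GFP-tagged PTB and incubated 16 h at 37 C. Cells are then fixed, nuclei stained with Hoechst, and PNC-positive cells counted.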

| SMILES | activity change (PNC), negative = inhibition |
| --- | --- |
| CC1CN(S(=O)(=O)c2ccc(C(=O)Nc3ccc(S(=O)(=O)Nc4ncccn4)cc3)cc2)CC(C)O1 (stereo not given) | inactive: 4.59% |
| Cc1csc(NC(=O)c2ccc(C)o2)n1 | inconclusive: -51.4% |
| COC(=O)c1cc(CNC(=O)c2ccccc2Cl)ccc1OC | inconclusive: -39.7% |
| CC(/C=C1\SC(=O)N(CC(=O)Nc2ccc(O)cc2)C1=O)=C\c1ccccc1 | inactive: 60.9% |
| NC(=O)c1cc2ccccc2o/c1=N\NC(=O)c1ccco1 | active: -119% |
| CCC(C)(C)n1nnnc1C(c1ccc(OC)c(OC)c1)N1CCN(c2ccccc2)CC1 (stereo not given) | inconclusive: -72.8% |
| CCC(Sc1n[nH]c(=O)[nH]c1=O)C(=O)OCc1ccccc1 (stereo not given) | inconclusive: -49.2% |
| COc1cc(OC)cc(C(=O)N[C@H](C(=O)OCC(=O)c2ccc3c(c2)NC(=O)CO3)C(C)C)c1 | inactive: 30.3% |
| Cc1ccc(NC(=O)c2cccc(Cl)c2)nc1 | inconclusive: -64.5% |
| CCOc1c(C)cc2[nH]c(CCC(=O)O)nc2c1C | active: -119% |
| Cn1c(SCC(=O)N2CCc3ccccc3C2)nnc1-c1ccncc1 | inconclusive: -46.6% |
| COc1ccc(OC)c(C(=O)CSc2nc3ncccc3[nH]2)c1 | inconclusive: -57% |
| CC(C(=O)N1CCC(C(N)=O)CC1)N(c1ccc(Oc2ccccc2)cc1)S(C)(=O)=O (stereo not given) | inconclusive: -38.5% |
| N=C(N)c1ccc(OCCCCCOc2ccc(C(=N)N)cc2)cc1 | inconclusive: -40.6% |
| COc1ccc(NC(=O)c2nnn(Cc3ccc(SC)cc3)c2N)c(OC)c1 | inconclusive: -39.2% |
| CCCc1oc(C(=O)O)cc1CN1CCCC1 | inconclusive: -43.4% |
| COc1ccc(C)cc1NC(=O)CN1CCN(S(=O)(=O)c2ccc(C(C)C)cc2)CC1 | inconclusive: -39.9% |
| O=C(Nc1nncs1)C1(c2ccccc2)CCCC1 | inconclusive: -66.9% |
| COc1ccc(-c2nn(-c3ccccc3)cc2C(=O)Nc2nc(CC(C)=O)ns2)cc1 | inconclusive: -75.2% |
| Oc1ccc(N=C/C=C/c2cccc(Br)c2)cc1-c1nc2ccccc2s1 | inactive: -19% |
| NC(=O)c1ccccc1NS(=O)(=O)c1cccs1 | inactive: -26% |
| Cc1ccc(CNC(=O)/C=C/c2c(Cl)cccc2Cl)cc1 | inconclusive: -71.8% |
| CCOC(=O)c1ccc(NC(=S)N2CCC(C(N)=O)CC2)cc1 | inconclusive: -36.7% |

| SMILES | activity change (PNC), negative = inhibition |
| --- | --- |
| O=C(Nc1ccccc1)N1CCN(c2ncccn2)CC1 | inconclusive: -42.5% |
| CC1(C)CC(=O)C=C(NNC(=O)C2CCCCC2)C1 | inconclusive: -51.8% |
| Cc1cnn(CCC(=O)NNC(=S)Nc2ccc(F)cc2)c1 | inconclusive: -36.1% |
| Cc1ccc(N/N=C(/Sc2nnnn2-c2ccccc2)C(=O)c2ccccc2)cc1 | inactive: 23.9% |
| Cc1cc(C)c(S(=O)(=O)Nc2cccc(/C=C/C(=O)O)c2)c(C)c1 | inconclusive: -44.4% |
| Cc1nccn1CCc1nc(N)nc(N)n1 | inconclusive: -47.2% |
| CCn1cc(C(=O)NCc2cccnc2)c2cc(OC)c(OC)cc2c1=O | inconclusive: -34.9% |
| COc1ccc(/C=N\NC(=O)c2ccc(=O)[nH]n2)cc1O | inconclusive: -39.4% |
| CCN1CCN(S(=O)(=O)c2cccc([N+](=O)[O-])c2)CC1 | inconclusive: -50.6% |
| Cc1nnc(SCc2cc(=O)oc3ccc4ccccc4c23)n1Cc1ccccc1 | inconclusive: -37.7% |
| COc1cc2c(cc1OC)C(c1ccccc1O)N(C1CC(=O)N(c3ccccc3)C1=O)CC2 (stereo not given) | inconclusive: -41.7% |
| COC(=O)Cc1n[nH]c(=S)[nH]c1=O | inconclusive: -38.8% |
| COc1cc2c(cc1OC)-c1cc(N3CCCc4ccccc43)nc(=O)n1CC2 | inactive: -10.7% |
| O=C(NC1CCCC1)C1CCCN1C(=O)Nc1ccccc1Cl (stereo not given) | inconclusive: -39.9% |
| CC(CC(=O)NC1CCSC1=O)c1ccccc1 (stereo not given) | inconclusive: -40.2% |
| CC(C)C(=O)N1CCC(c2nc(-c3ccc(S(=O)(=O)N4CCCC4)cc3)no2)CC1 | inconclusive: -31.6% |
| CCNc1nc(CSc2ccccc2)nc2sc(C)c(C)c12 | inactive: -0.373% |
| COc1ccccc1NC(=O)NCCN1C(=O)C2C3C=CC(C3)C2C1=O (stereo not given) | inconclusive: -33.9% |
| COc1ccc(S(=O)(=O)Nc2cccc(/C=C/C(=O)O)c2)cc1 | inconclusive: -36.6% |
| COc1cc(/C=N/NC(N)=O)cc(Br)c1OCc1ccc(C)cc1 | inconclusive: -37.1% |
| Cn1c(OCc2ccco2)nc2c1c(=O)n(Cc1ccc(Cl)c(Cl)c1)c(=O)n2C | inactive: 28.3% |
| CCOC(=O)c1nnn(-c2nonc2N)c1CN(C)C1CCCCC1 | inconclusive: -32.6% |

Look-ups from the list.
N=C(N)c1ccc(OCCCCCOc2ccc(C(=N)N)cc2)cc1 | activity change (PNC), negative = inhibition: inconclusive: -40.6%
COc1ccc(S(=O)(=O)Nc2cccc(/C=C/C(=O)O)c2)cc1 | activity change (PNC), negative = inhibition: inconclusive: -36.6%
